Measurements reported in article doi:10.1101/2021.10.04.463067.

Sequences of proteins named here, by UniProt entry; tags and fusion partners are left off. A change or cut given only in a name is not applied to a line headed by its entry.
UniProt Q9UI95: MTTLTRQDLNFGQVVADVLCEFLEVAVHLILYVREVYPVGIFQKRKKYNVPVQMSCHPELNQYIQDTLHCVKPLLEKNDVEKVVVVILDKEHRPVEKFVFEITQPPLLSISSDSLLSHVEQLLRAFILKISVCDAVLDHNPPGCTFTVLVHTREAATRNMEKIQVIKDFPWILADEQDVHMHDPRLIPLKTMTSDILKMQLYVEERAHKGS
UniProt O60673: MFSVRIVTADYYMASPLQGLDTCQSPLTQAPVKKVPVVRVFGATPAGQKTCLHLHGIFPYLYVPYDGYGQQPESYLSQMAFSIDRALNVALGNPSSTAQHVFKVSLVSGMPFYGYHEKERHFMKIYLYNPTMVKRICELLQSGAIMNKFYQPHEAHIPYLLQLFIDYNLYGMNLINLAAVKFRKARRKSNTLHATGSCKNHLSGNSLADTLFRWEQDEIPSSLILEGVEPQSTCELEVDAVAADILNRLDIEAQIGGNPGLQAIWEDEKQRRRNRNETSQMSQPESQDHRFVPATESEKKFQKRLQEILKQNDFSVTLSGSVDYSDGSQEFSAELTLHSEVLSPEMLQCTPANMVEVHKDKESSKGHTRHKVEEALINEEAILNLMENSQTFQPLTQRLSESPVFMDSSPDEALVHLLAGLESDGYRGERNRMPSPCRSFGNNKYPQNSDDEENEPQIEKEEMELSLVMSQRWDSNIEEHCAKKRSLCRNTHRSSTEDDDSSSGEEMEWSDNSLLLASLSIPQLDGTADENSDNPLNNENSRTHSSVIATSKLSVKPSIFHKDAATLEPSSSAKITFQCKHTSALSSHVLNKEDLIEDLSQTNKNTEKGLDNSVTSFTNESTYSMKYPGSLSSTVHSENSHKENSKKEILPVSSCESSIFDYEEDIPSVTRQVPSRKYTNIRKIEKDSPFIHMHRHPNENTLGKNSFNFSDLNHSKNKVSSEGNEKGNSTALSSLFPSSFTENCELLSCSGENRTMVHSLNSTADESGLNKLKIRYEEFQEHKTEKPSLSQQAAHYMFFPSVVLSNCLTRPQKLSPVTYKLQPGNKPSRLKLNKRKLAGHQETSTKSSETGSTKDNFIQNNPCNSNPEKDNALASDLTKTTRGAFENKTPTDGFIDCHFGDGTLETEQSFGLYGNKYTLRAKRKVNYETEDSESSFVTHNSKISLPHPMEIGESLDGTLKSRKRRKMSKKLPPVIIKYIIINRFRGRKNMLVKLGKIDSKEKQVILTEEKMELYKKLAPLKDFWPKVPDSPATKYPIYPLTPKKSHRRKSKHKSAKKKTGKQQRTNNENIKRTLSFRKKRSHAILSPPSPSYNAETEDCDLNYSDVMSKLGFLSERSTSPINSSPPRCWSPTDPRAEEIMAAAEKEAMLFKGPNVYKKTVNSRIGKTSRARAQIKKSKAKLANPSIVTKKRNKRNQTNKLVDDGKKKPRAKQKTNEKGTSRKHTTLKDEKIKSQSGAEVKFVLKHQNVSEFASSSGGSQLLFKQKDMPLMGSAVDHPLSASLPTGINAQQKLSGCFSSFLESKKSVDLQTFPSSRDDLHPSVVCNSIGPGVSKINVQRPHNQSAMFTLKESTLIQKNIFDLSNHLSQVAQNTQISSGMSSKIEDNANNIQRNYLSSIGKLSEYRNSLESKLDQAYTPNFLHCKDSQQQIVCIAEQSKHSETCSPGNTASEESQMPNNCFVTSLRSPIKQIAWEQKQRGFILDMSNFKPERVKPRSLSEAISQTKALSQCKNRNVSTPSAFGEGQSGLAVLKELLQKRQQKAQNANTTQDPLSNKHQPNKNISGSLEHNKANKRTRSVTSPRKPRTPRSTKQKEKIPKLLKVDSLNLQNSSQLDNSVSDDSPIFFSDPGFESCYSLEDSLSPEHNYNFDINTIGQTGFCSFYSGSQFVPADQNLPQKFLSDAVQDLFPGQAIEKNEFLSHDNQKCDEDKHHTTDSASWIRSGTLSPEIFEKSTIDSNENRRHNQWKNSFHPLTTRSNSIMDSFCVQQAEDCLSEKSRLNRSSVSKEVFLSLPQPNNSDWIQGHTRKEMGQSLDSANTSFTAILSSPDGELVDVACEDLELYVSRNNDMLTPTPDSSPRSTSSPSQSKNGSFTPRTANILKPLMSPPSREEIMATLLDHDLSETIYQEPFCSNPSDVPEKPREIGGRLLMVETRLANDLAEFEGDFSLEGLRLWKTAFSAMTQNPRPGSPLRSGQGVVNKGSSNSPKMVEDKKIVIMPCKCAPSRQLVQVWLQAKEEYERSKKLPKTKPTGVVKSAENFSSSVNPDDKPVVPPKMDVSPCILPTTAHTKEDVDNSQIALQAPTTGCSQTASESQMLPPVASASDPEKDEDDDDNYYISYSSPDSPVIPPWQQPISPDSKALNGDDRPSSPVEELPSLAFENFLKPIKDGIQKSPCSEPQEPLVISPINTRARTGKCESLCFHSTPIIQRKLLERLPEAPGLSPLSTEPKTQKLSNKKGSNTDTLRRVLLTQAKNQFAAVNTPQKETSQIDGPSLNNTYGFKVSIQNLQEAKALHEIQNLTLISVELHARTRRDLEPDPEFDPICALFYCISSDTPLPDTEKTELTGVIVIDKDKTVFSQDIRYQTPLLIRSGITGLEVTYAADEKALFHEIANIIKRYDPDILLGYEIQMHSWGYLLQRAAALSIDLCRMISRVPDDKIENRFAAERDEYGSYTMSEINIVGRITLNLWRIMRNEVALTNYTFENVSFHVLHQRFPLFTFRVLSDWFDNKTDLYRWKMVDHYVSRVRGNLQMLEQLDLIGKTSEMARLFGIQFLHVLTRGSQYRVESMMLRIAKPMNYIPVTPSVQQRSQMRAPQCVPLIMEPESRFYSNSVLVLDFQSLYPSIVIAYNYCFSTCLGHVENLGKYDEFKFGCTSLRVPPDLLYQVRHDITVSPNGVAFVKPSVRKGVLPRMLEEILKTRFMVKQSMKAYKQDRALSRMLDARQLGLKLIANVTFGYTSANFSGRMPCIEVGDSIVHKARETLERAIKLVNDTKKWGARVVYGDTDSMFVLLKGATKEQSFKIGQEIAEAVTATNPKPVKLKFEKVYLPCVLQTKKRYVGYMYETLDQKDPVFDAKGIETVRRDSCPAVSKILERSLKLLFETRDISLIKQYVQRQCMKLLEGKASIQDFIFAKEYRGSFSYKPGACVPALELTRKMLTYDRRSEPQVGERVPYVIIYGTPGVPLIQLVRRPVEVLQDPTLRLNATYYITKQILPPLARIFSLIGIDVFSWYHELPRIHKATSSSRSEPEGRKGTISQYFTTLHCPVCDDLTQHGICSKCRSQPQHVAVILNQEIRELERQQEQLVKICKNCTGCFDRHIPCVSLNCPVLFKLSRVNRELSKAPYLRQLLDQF
UniProt Q96JM3: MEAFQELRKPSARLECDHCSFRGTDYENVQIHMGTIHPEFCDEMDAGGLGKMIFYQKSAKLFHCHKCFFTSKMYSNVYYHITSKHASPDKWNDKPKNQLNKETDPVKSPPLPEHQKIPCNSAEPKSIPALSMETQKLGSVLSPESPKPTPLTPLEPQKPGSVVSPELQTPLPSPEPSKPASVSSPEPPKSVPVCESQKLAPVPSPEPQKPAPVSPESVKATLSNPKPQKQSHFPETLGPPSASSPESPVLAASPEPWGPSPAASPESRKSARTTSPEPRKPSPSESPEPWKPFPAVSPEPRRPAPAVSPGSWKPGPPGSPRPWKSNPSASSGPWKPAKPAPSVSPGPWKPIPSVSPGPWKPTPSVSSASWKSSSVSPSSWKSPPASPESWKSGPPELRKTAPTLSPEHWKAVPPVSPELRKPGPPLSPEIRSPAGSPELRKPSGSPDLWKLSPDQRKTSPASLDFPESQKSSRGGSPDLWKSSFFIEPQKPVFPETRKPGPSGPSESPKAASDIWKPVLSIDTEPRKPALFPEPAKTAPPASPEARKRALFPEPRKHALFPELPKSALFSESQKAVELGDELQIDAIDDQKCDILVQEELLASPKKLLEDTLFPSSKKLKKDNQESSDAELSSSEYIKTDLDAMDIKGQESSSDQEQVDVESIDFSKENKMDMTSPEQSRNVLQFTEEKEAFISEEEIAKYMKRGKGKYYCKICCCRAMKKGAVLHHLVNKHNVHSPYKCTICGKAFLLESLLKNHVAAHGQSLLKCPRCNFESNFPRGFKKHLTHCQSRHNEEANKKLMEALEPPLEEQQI

Legend:
Test in all cases: co-IP
Flag-REV7-T103A = Flag-REV7-T103A (UniProt Q9UI95)
Flag-REV7 wild type = Flag-REV7 wild type (UniProt Q9UI95)
[1] = molecular target: GFP-tagged fragment of REV3 containing the REV7-binding domain (R3BD) (UniProt O60673)
GFP-CHAMP1-ΔFPE = GFP-CHAMP1-ΔFPE (UniProt Q96JM3)

Row | Substance | binding (Flag-REV7-T103A) | binding (Flag-REV7 wild type) | binding [1] | binding (GFP-CHAMP1-ΔFPE)
1 | GFP-tagged fragment of REV3 containing the REV7-binding domain (R3BD) (from UniProt O60673) (domain or fragment) | binds | binds |  | 
2 | endogenous REV7 (from UniProt Q9UI95 1-211) |  |  | binds | binds

Results are given in words; binding and its absence hold for the method and conditions named. In cells and extracts the contact can be indirect. Binding calls can cover weak binding; strength is not graded here.
